{"source": "PubChem BioAssay AID1159578 (Peter MacCallum Cancer Centre, 2015)", "aim": "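siRNA pools altering how lymphatic endothelial cells close a scratch wound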 (primary screen)", "system": "human lymphatic endothelial cells", "reagents": "siRNA pool against human genes, 40 nM", "duration": "48 h after transfection", "read-out": "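Cells stained with dye and imaged after a scratch; covered wound area and nuclei counted, duplicates averaged, migration set against mock wells and turned into a robust z-score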", "direction": "migration robust z-score: higher = faster migration into the scratch; nuclei per well: higher = more cells in the well", "rule for the call": "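Migration changed when robust z exceeds 2 or falls below -2 and mean nuclei number is at least 3300; otherwise not called changed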", "meaning of the calls": "active = migration changed; inactive = no migration change, or too few cells", "note": "The deposit covers about 18,000 reagents; shown is an unselected part. About 1,030 of them (5.7%) count as active. 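Inactive calls also include pools with fewer than 3300 nuclei, whose migration was not assessed.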 Raw values vary from plate to plate and are shown uncorrected. Unmarked entries are inactive. Not all columns of the deposit are shown. No sequences are given here."}
{"gene": "RBPMS", "migration robust z-score": 0.98, "nuclei per well, duplicate mean": 4666}
{"gene": "CINP", "migration robust z-score": 0.79, "nuclei per well, duplicate mean": 6134}
{"gene": "UNC119", "migration robust z-score": 1.37, "nuclei per well, duplicate mean": 6174}
{"gene": "LINC03122", "migration robust z-score": -0.08, "nuclei per well, duplicate mean": 5681}
{"gene": "ITPRID2", "migration robust z-score": 0.61, "nuclei per well, duplicate mean": 6569}
{"gene": "PHB1", "migration robust z-score": 0.03, "nuclei per well, duplicate mean": 5961}
{"gene": "MAN2C1", "migration robust z-score": 0.73, "nuclei per well, duplicate mean": 5402}
{"gene": "NAA11", "migration robust z-score": 0.56, "nuclei per well, duplicate mean": 5840}
{"gene": "SLK", "migration robust z-score": -2.44, "nuclei per well, duplicate mean": 2464}
{"gene": "MICOS13", "migration robust z-score": 1.25, "nuclei per well, duplicate mean": 5600}
{"gene": "SESN2", "migration robust z-score": 1.19, "nuclei per well, duplicate mean": 7175}
{"gene": "BUD31", "migration robust z-score": -0.4, "nuclei per well, duplicate mean": 6340}
